Earlier results in patent US10864198B2, “Methods of preventing cardiovascular events in residual risk dyslipidemic populations” (Kowa Company, Ltd., priority 2016, dated 2020).
At least one structure is not confirmed: it was looked up by name or label, or the drawing left a doubt.

Tests used:
[1] = test system: patients with mixed dyslipidemia on atorvastatin therapy; conditions: FIRST, added to statin therapy vs statin monotherapy; cited from earlier work
[2] = test system: people with type 2 diabetes mellitus not taking statin therapy; conditions: FIELD, five years, vs placebo; cited from earlier work

For `CC(C)(Oc1ccc(C(=O)c2ccc(Cl)cc2)cc1)C(=O)O` [Fenofibric Acid], the “progression of carotid intima-media thickness (cIMT)” value [1] is given as “did not observe any improvement in cIMT”.

In the case of `CC(C)OC(=O)C(C)(C)Oc1ccc(C(=O)c2ccc(Cl)cc2)cc1` [Fenofibrate], the “primary endpoint of major coronary events” value [2] is listed as “did not show a benefit”.
